Reference: patent US20110152332A1, “Pesticidal Heterocyclic Compounds” (Bayer CropScience AG, priority 2009, published 2011)
Some results were stated once for a whole list of compounds, not compound by compound.

Test system: Boophilus microplus
Experiment: Boophilus microplus-test (BOOPMI injection)
Assay type: in vivo
Settings: application rate 20 μg/animal; injection into abdomen of adult engorged female ticks; after 7 days

Question: How did the “activity (mortality in %; 100% means that all eggs are infertile)” value turn out when CCC(=O)NCc1ccc(N2CC(c3cc(Cl)cc(Cl)c3)(C(F)(F)F)OC2=O)cc1C(F)(F)F (stereo not shown) [Compound 1-3, N-{4-[5-(3,5-dichlorophenyl)-2-oxo-5-(trifluoromethyl)-1,3-oxazolin-3-yl]-2-(trifluoromethyl)benzyl}propane amide] was run?
Answer: 100%
